Measured values reported in patent publication US12161756B2, “Pharmaceutical-loaded nanocomposite for treating pulmonary infections” (Imam Abdulrahman Bin Faisal University, priority 2021, dated 2024).
For at least one compound, name, drawing or mass did not settle the structure.

Assay: Cumulative dexamethasone release from nanocomposites at pH 7.4 and pH 5.6
Assay type: physicochemical
Details: carrier not named in b120 (ZnFe2O4/Halloysite by FIG. 7A and contrast with b121)

Q: What does the source list for `C[C@@H]1C[C@H]2[C@@H]3CCC4=CC(=O)C=C[C@]4(C)[C@@]3(F)[C@@H](O)C[C@]2(C)[C@@]1(O)C(=O)CO` [Dexamethasone, dexamethasone]?
A: release of dexamethasone (neutral pH 7.4): < 5%; release of dexamethasone (controlled, sustained) (pH 5.6): < 20%
